Assay [1] deals with T1, eGFP-EDC3 (pT7-EGFP-C1-HsEDC3) (human) (UniProt Q96F86).
T1 sequence: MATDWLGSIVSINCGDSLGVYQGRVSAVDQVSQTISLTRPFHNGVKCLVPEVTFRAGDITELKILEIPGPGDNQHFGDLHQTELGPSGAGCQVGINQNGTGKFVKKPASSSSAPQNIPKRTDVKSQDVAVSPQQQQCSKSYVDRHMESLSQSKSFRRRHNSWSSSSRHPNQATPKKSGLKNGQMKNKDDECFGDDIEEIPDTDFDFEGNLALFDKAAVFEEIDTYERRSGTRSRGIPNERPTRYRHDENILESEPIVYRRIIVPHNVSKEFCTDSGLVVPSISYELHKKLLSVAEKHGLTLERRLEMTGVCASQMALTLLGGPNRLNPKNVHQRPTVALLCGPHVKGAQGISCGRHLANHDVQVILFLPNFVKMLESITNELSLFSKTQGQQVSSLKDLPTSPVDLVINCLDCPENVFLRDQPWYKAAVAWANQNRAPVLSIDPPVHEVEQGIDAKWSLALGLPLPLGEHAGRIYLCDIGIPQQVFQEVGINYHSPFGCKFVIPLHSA
The assay is described as follows: co-IP; HCT116 IGF2BP3 KO cells (clone A3) co-transfected with eGFP-EDC3 and 3xFLAG-IGF2BP3 WT or 4A; GFP-trap beads, 1 h at 4°C with 2 U/µL RNase I; 25 mM Tris-HCl pH 7.4, 100 mM KCl, 0.5% NP-40; Western blot with anti-GFP and anti-FLAG. (In general: In western blotting, separated proteins are transferred to a membrane and probed.)

Amino acid sequences for entries named in this document (tags omitted).
UniProt O00425: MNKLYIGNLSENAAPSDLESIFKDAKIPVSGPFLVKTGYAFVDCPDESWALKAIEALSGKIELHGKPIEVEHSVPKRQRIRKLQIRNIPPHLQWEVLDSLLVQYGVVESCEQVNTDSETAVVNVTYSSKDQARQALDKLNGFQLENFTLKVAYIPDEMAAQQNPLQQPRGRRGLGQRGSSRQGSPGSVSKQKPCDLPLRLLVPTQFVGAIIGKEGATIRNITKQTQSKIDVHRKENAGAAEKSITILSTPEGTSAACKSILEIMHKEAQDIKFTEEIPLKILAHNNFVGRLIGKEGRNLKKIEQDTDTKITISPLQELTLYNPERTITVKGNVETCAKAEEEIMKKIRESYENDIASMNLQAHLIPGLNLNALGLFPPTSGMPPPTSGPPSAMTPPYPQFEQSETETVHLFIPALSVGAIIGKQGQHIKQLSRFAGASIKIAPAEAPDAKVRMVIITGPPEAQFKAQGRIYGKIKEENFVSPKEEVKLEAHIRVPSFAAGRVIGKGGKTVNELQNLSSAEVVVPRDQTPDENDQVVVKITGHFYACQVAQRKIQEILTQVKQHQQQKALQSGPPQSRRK

The target of assay [2] is T2, EDC3 tagged with split-mNeonGreen in HEK293T cells (human (endogenous in HEK293T)) (UniProt Q96F86).
T2 sequence: T1 sequence
The assay is described as follows: co-IP; HEK293T split GFP-IGF2BP3 or split mNeonGreen-EDC3 cells, DMSO or TM 5 µg/mL 4 h; GFP-trap or mNeonGreen-trap magnetic beads, 1 h at 4°C with 2 U/µL RNase I; 25 mM Tris-HCl pH 7.4, 100 mM KCl, 0.5% NP-40; Western blot.

Assay [3] concerns the target split-GFP-tagged IGF2BP3 in HEK293T cells (human (endogenous in HEK293T)) (UniProt O00425). The description is as above.

No constants are given. Whether binding was seen depends on the method and setting. In cells and extracts the contact can be indirect. Some entries that bind do so weakly or less than the wild type. For part of these data: Where a sequence is shown, tags or fusion partners need not be part of it.

Regarding “3xFLAG-hsIGF2BP3 WT (from UniProt O00425 1-579)”, the binding result in assay [1] was “binds”.

On to “IGF2BP3, endogenous in HEK293T split mNeonGreen-EDC3 cells (from UniProt O00425 1-579)”, for which the binding result in assay [2] is “binds”.

B1: EDC4, endogenous in HEK293T cells (protein, UniProt Q6P2E9 1-1401)
chain: MASCASIDIEDATQHLRDILKLDRPAGGPSAESPRPSSAYNGDLNGLLVPDPLCSGDSTSANKTGLRTMPPINLQEKQVICLSGDDSSTCIGILAKEVEIVASSDSSISSKARGSNKVKIQPVAKYDWEQKYYYGNLIAVSNSFLAYAIRAANNGSAMVRVISVSTSERTLLKGFTGSVADLAFAHLNSPQLACLDEAGNLFVWRLALVNGKIQEEILVHIRQPEGTPLNHFRRIIWCPFIPEESEDCCEESSPTVALLHEDRAEVWDLDMLRSSHSTWPVDVSQIKQGFIVVKGHSTCLSEGALSPDGTVLATASHDGYVKFWQIYIEGQDEPRCLHEWKPHDGRPLSCLLFCDNHKKQDPDVPFWRFLITGADQNRELKMWCTVSWTCLQTIRFSPDIFSSVSVPPSLKVCLDLSAEYLILSDVQRKVLYVMELLQNQEEGHACFSSISEFLLTHPVLSFGIQVVSRCRLRHTEVLPAEEENDSLGADGTHGAGAMESAAGVLIKLFCVHTKALQDVQIRFQPQLNPDVVAPLPTHTAHEDFTFGESRPELGSEGLGSAAHGSQPDLRRIVELPAPADFLSLSSETKPKLMTPDAFMTPSASLQQITASPSSSSSGSSSSSSSSSSSLTAVSAMSSTSAVDPSLTRPPEELTLSPKLQLDGSLTMSSSGSLQASPRGLLPGLLPAPADKLTPKGPGQVPTATSALSLELQEVEPLGLPQASPSRTRSPDVISSASTALSQDIPEIASEALSRGFGSSAPEGLEPDSMASAASALHLLSPRPRPGPELGPQLGLDGGPGDGDRHNTPSLLEAALTQEASTPDSQVWPTAPDITRETCSTLAESPRNGLQEKHKSLAFHRPPYHLLQQRDSQDASAEQSDHDDEVASLASASGGFGTKVPAPRLPAKDWKTKGSPRTSPKLKRKSKKDDGDAAMGSRLTEHQVAEPPEDWPALIWQQQRELAELRHSQEELLQRLCTQLEGLQSTVTGHVERALETRHEQEQRRLERALAEGQQRGGQLQEQLTQQLSQALSSAVAGRLERSIRDEIKKTVPPCVSRSLEPMAGQLSNSVATKLTAVEGSMKENISKLLKSKNLTDAIARAAADTLQGPMQAAYREAFQSVVLPAFEKSCQAMFQQINDSFRLGTQEYLQQLESHMKSRKAREQEAREPVLAQLRGLVSTLQSATEQMAATVAGSVRAEVQHQLHVAVGSLQESILAQVQRIVKGEVSVALKEQQAAVTSSIMQAMRSAAGTPVPSAHLDCQAQQAHILQLLQQGHLNQAFQQALTAADLNLVLYVCETVDPAQVFGQPPCPLSQPVLLSLIQQLASDLGTRTDLKLSYLEEAVMHLDHSDPITRDHMGSVMAQVRQKLFQFLQAEPHNSLGKAARRLSLMLHGLVTPSLP
In the case of B1, the binding entry in assay [3] is given as “binds”.
